Assay [1] has as its target β-arrestin1 (1321N1 cells) (human (endogenous in 1321N1)) (UniProt P49407). The assay is described as follows: condition: only cells treated with 100 nM LTD4 for 30 min; co-IP; as a5, 1321N1 HA Tag-GPR17 cells treated with 100 nM LTD4 for 30 min.
Assay [2] addresses β-arrestin2 (1321N1 cells) (human (endogenous in 1321N1)) (UniProt P32121). Described as above.
Assay [3] concerns the target β-arrestin1 (1321N1 cells) (human (endogenous in 1321N1)) (UniProt P49407). The assay is described as follows: co-IP; 1321N1 HA Tag-GPR17 cells, RIPA lysate (1.5 mg), immunoprecipitation with anti-β-arrestin antibodies, blot with anti-HA Tag (the legend tells the reverse order); cells basal, 100 μM UDP-glucose (5 or 30 min) or 100 nM LTD4 (5 min).
Assay [4] deals with β-arrestin2 (1321N1 cells) (human (endogenous in 1321N1)) (UniProt P32121). Described as above.
The target of assay [5] is GPR17 (native, primary oligodendrocyte precursor cells) (rat (endogenous in primary OPCs)) (UniProt Q09QM4). The assay is described as follows: ELISA; sandwich immunoenzymatic assay on crude lysates (10 μg) of primary OPCs; GPR17 captured on wells coated with anti-N terminus GPR17 antibody, partner detected with its primary antibody, HRP secondary, TMB, A450; cells basal, 5 μM UDP-glucose or 50 nM LTD4 for 5 min (UDP-glucose also 30 min). For orientation: An ELISA detects its analyte on a solid surface through an enzyme-linked reagent.

Sequences of proteins named here, by UniProt entry; tags and fusion partners are left off.
UniProt P49407: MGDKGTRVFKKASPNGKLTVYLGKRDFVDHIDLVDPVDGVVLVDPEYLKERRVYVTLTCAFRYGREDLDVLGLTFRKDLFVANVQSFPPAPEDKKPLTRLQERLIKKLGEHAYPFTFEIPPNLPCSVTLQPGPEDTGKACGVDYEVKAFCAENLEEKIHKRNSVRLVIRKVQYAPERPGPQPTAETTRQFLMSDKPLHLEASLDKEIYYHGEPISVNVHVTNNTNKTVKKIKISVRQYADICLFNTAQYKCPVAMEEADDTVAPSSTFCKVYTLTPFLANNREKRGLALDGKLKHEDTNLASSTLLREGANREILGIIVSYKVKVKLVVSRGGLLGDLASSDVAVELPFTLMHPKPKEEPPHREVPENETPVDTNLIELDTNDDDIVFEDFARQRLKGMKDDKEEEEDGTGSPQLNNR
UniProt P32121: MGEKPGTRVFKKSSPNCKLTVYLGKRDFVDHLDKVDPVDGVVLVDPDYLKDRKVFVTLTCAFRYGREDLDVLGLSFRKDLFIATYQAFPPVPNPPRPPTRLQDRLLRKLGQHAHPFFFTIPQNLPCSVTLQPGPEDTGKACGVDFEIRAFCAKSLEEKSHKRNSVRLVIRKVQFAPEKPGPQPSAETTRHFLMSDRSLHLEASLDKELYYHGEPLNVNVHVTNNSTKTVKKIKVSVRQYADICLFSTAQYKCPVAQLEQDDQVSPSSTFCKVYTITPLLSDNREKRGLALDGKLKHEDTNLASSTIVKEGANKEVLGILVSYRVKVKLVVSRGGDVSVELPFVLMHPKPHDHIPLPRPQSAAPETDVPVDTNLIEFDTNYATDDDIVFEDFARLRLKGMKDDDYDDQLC
UniProt Q09QM4: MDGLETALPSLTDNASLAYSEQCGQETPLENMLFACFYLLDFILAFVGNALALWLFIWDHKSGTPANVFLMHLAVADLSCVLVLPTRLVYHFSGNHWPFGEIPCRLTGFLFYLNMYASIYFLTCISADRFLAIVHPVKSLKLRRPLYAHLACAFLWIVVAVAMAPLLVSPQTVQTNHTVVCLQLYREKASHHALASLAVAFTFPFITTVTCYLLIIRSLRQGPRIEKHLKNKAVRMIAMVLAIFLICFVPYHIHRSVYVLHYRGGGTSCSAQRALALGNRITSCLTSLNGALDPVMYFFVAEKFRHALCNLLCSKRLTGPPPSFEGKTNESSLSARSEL
UniProt Q13304: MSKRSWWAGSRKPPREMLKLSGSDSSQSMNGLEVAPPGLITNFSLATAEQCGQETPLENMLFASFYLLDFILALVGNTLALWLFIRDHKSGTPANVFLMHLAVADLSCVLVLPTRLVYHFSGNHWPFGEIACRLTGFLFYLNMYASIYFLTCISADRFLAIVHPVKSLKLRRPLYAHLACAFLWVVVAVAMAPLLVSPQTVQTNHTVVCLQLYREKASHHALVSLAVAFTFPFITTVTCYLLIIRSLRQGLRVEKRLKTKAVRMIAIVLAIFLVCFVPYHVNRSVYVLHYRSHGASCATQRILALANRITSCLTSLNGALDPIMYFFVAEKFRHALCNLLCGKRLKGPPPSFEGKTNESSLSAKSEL
UniProt P26817: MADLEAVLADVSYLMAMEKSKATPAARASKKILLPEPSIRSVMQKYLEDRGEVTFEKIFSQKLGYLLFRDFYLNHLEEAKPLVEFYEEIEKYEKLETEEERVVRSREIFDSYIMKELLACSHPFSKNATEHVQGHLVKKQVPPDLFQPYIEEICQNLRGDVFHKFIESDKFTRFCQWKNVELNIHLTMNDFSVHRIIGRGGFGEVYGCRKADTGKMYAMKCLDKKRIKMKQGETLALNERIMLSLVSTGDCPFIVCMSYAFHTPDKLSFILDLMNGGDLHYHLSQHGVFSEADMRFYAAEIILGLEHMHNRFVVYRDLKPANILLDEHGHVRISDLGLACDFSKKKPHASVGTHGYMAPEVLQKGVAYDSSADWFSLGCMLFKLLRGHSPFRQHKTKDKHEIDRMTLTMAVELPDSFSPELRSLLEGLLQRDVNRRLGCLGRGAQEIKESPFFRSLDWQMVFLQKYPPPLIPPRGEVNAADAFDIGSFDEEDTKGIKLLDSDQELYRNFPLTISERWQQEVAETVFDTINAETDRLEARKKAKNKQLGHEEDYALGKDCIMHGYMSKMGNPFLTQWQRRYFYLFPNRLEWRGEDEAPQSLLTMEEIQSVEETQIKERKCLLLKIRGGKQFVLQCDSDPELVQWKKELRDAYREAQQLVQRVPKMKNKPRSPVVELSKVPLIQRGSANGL
UniProt P25098: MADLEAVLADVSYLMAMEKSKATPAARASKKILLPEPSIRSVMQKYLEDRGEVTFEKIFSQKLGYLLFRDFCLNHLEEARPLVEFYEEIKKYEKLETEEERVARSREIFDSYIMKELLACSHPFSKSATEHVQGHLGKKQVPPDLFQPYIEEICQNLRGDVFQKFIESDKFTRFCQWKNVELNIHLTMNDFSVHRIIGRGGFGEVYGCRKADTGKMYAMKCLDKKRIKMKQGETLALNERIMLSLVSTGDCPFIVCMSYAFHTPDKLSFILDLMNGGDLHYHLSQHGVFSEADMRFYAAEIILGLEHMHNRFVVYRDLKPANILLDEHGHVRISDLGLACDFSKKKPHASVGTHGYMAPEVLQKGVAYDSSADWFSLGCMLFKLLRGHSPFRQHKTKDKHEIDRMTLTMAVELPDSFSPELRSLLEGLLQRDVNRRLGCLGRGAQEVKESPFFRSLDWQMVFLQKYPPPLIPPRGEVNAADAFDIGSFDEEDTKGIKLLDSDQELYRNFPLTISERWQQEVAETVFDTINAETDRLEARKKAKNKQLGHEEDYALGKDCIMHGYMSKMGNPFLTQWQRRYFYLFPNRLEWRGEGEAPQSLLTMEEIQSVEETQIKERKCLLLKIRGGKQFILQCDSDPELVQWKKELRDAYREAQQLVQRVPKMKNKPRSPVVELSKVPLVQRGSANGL
UniProt Q62833: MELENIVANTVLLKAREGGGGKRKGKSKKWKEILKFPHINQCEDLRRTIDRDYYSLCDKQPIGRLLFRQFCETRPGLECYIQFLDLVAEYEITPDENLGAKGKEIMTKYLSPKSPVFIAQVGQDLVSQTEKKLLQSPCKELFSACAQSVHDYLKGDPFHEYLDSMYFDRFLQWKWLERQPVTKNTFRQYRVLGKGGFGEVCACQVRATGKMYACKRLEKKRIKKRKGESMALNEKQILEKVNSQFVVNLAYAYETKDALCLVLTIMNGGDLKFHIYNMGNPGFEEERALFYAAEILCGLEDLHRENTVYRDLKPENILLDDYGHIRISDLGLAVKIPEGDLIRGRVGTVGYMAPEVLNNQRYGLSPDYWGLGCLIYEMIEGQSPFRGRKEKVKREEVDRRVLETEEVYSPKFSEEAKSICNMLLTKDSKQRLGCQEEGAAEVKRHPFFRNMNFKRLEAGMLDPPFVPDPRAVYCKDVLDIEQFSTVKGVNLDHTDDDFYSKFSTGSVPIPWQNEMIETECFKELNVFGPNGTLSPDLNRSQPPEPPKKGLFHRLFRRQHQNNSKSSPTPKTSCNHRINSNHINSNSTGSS
UniProt P34947: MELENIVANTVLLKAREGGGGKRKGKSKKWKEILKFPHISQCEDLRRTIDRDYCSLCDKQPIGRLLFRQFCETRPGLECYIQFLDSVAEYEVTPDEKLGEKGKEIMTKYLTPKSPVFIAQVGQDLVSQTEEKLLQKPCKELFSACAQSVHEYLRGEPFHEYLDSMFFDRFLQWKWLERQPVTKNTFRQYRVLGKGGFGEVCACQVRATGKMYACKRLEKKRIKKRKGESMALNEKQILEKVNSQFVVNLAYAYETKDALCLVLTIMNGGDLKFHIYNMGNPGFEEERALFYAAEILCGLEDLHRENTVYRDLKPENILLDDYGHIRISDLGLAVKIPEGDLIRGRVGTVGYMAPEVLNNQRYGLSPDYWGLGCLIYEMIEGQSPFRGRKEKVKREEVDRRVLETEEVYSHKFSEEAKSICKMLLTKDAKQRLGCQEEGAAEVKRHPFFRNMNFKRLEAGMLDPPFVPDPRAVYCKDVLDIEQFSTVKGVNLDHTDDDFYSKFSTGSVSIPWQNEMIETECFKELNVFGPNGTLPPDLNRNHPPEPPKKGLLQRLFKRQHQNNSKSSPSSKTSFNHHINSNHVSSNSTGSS

Assay [6] has the same target. The assay is described as follows: co-IP; primary OPCs, RIPA lysate (1 mg), immunoprecipitation with home-made rabbit anti-GPR17 antibody, blot with anti-GRK2 or anti-GRK5; cells basal, 5 μM UDP-glucose or 50 nM LTD4 for 5 min.
The target of assay [7] is HA Tag-GPR17 (UniProt Q13304). The assay is described as follows: condition: only cells treated with 100 nM LTD4 for 30 min; ELISA; as a1, 1321N1 HA Tag-GPR17 cells treated with 100 nM LTD4 for 30 min.
Assay [8] addresses HA Tag-GPR17 (UniProt Q13304). The assay is described as follows: ELISA; sandwich immunoenzymatic assay on crude lysates (10 μg) of 1321N1 HA Tag-GPR17 cells; HA Tag-GPR17 captured on wells coated with anti-HA Tag antibody, partner detected with its primary antibody, HRP secondary, TMB, A450; cells basal, 100 μM UDP-glucose or 100 nM LTD4 for 5 min (UDP-glucose also 30 min).
Assay [9] concerns the target HA Tag-GPR17 (UniProt Q13304). The assay is described as follows: co-IP; 1321N1 HA Tag-GPR17 cells, RIPA lysate (1 mg), immunoprecipitation with anti-HA Tag antibody, blot with anti-GRK2 or anti-GRK5; cells basal, 100 μM UDP-glucose or 100 nM LTD4 for 5 min.

Results are given in words; binding and its absence hold for the method and conditions named. For some assays here: Binding seen in cells or lysates may run through a third protein. Some binding calls cover weakened binding; strength is not graded here.

With “HA Tag-GPR17 (from UniProt Q13304 1-367) (receptor)”, the binding result in assay [1] is reported as “no binding”; in assay [2] it was “no binding”; in [3], “binds”; in [4], “binds”.

For “GRK2 (primary OPCs) (from UniProt P26817 1-689) (enzyme)”, the binding entry in [5] and in assay [6] was “binds” in each case.

In the case of “β-arrestin1 (1321N1 cells) (from UniProt P49407 1-418)”, the figures for the binding entry with HA Tag-GPR17 [7] and in the assay with HA Tag-GPR17 [8] were “no binding” and “binds”, respectively.

“GRK2 (1321N1 cells) (from UniProt P25098 1-689) (enzyme)”: the binding entry with HA Tag-GPR17 [9] and with HA Tag-GPR17 [8] was “binds” each time.

As for “GRK5 (primary OPCs) (from UniProt Q62833 1-590) (enzyme)”, the binding entry in assay [5] and in assay [6] was “binds” each time.

As to “GRK5 (1321N1 cells) (from UniProt P34947 1-590) (enzyme)”, the binding result in the assay with HA Tag-GPR17 [9] and with HA Tag-GPR17 [8] was “binds” each time.

The values above are taken from article PMC4013626.
